# According to the supplement of paper PMC8728848:
# Some of the results follow.
# B1: Aap arpt (Staphylococcus epidermidis) (protein)
# chain: NNEAPQMSSTLQAEEGSNAEAPQSEPTKAEEGGNAEAAQSEPTKAEEGGNAEAPQSEPTKAEEGGNAEAAQSEPTKTEEGSNVKAAQSEPTKAEEGSNAEAPQSEPTKTEEGSNAKAAQSEPTKAEEGGNAEAAQSEPTKTEEGSNAEAPQSEPTKAEEGGYAEAPQSEPTKTEEGGNAEAPNVPTIKA
# Legend:
# Assay in all cases: glycan array binding signal (z-score within array); higher = stronger binding
# Conditions in all cases: glycan notation: IUPAC condensed, linker removed
# [1] = biological target: Neu5Ac(a2-3)Gal(b1-4)Glc
# How it was run: (§1)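 The binding signal is a Z-score computed within each array and averaged over linkers. Arrays of the same protein sequence at different concentrations or buffers were also averaged together. Data originate from 3228 arrays in the Consortium for Functional Glycomics database, kept only where the protein sequence was available.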
# [2] = biological target: Neu5Ac(a2-3)Gal(b1-4)GlcNAc
# How it was run: as §1
# [3] = biological target: Neu5Ac(a2-3)Gal(b1-4)GlcNAc(b1-2)Man
# How it was run: as §1
# [4] = biological target: Neu5Ac(a2-3)Gal(b1-4)GlcNAc(b1-2)Man(a1-3)[GlcNAc(b1-4)][Neu5Ac(a2-3)Gal(b1-4)GlcNAc(b1-2)Man(a1-6)]Man(b1-4)GlcNAc(b1-4)GlcNAc
# How it was run: as §1
# [5] = biological target: Neu5Ac(a2-3)Gal(b1-4)GlcNAc(b1-2)Man(a1-3)[Neu5Ac(a2-3)Gal(b1-4)GlcNAc(b1-2)Man(a1-6)]Man(b1-4)GlcNAc(b1-4)GlcNAc
# How it was run: as §1
# [6] = biological target: Neu5Ac(a2-3)Gal(b1-4)GlcNAc(b1-2)Man(a1-3)[Neu5Ac(a2-3)Gal(b1-4)GlcNAc(b1-2)Man(a1-6)]Man(b1-4)GlcNAc(b1-4)[Fuc(a1-6)]GlcNAc
# How it was run: as §1
# [7] = biological target: Neu5Ac(a2-3)Gal(b1-4)GlcNAc(b1-2)Man(a1-3)[Neu5Ac(a2-6)Gal(b1-4)GlcNAc(b1-2)Man(a1-6)]Man(b1-4)GlcNAc(b1-4)GlcNAc
# How it was run: as §1
# [8] = biological target: Neu5Ac(a2-3)Gal(b1-4)GlcNAc(b1-2)[Neu5Ac(a2-3)Gal(b1-4)GlcNAc(b1-4)]Man(a1-3)[GlcNAc(b1-4)][Neu5Ac(a2-3)Gal(b1-4)GlcNAc(b1-2)[Neu5Ac(a2-3)Gal(b1-4)GlcNAc(b1-6)]Man(a1-6)]Man(b1-4)GlcNAc(b1-4)GlcNAc
# How it was run: as §1
# [9] = biological target: Neu5Ac(a2-3)Gal(b1-4)GlcNAc(b1-2)[Neu5Ac(a2-3)Gal(b1-4)GlcNAc(b1-4)]Man(a1-3)[GlcNAc(b1-4)][Neu5Ac(a2-3)Gal(b1-4)GlcNAc(b1-4)Man(a1-6)]Man(b1-4)GlcNAc(b1-4)GlcNAc
# How it was run: as §1
# [10] = biological target: Neu5Ac(a2-3)Gal(b1-4)GlcNAc(b1-2)[Neu5Ac(a2-3)Gal(b1-4)GlcNAc(b1-6)]Man(a1-6)[Neu5Ac(a2-3)Gal(b1-4)GlcNAc(b1-2)Man(a1-3)][GlcNAc(b1-4)]Man(b1-4)GlcNAc(b1-4)GlcNAc
# How it was run: as §1
# [11] = biological target: Neu5Ac(a2-3)Gal(b1-4)GlcNAc(b1-3)Gal
# How it was run: as §1
# [12] = biological target: Neu5Ac(a2-3)Gal(b1-4)GlcNAc(b1-3)Gal(b1-3)GlcNAc
# How it was run: as §1
# [13] = biological target: Neu5Ac(a2-3)Gal(b1-4)GlcNAc(b1-3)Gal(b1-4)GlcNAc
# How it was run: as §1
# [14] = biological target: Neu5Ac(a2-3)Gal(b1-4)GlcNAc(b1-3)Gal(b1-4)GlcNAc(b1-2)Man(a1-3)[Neu5Ac(a2-3)Gal(b1-4)GlcNAc(b1-3)Gal(b1-4)GlcNAc(b1-2)Man(a1-6)]Man(b1-4)GlcNAc(b1-4)GlcNAc
# How it was run: as §1
# [15] = biological target: Neu5Ac(a2-3)Gal(b1-4)GlcNAc(b1-3)Gal(b1-4)GlcNAc(b1-3)Gal(b1-4)GlcNAc
# How it was run: as §1
# [16] = biological target: Neu5Ac(a2-3)Gal(b1-4)GlcNAc(b1-3)Gal(b1-4)GlcNAc(b1-3)Gal(b1-4)GlcNAc(b1-2)Man(a1-3)[Neu5Ac(a2-3)Gal(b1-4)GlcNAc(b1-3)Gal(b1-4)GlcNAc(b1-3)Gal(b1-4)GlcNAc(b1-2)Man(a1-6)]GalNAc
# How it was run: as §1
# [17] = biological target: Neu5Ac(a2-3)Gal(b1-4)GlcNAc(b1-3)Gal(b1-4)GlcNAc(b1-3)GalNAc
# How it was run: as §1
# [18] = biological target: Neu5Ac(a2-3)Gal(b1-4)GlcNAc(b1-3)Gal(b1-4)GlcNAc(b1-3)[Neu5Ac(a2-3)Gal(b1-4)GlcNAc(b1-3)Gal(b1-4)GlcNAc(b1-6)]GalNAc
# How it was run: as §1
# [19] = biological target: Neu5Ac(a2-3)Gal(b1-4)GlcNAc(b1-3)Gal(b1-4)GlcNAc(b1-6)[Gal(b1-3)]GalNAc
# How it was run: as §1
# [20] = biological target: Neu5Ac(a2-3)Gal(b1-4)GlcNAc(b1-3)Gal(b1-4)[Fuc(a1-3)]GlcNAc
# How it was run: as §1
# [21] = biological target: Neu5Ac(a2-3)Gal(b1-4)GlcNAc(b1-3)GalNAc
# How it was run: as §1
# [22] = biological target: Neu5Ac(a2-3)Gal(b1-4)GlcNAc(b1-3)[Neu5Ac(a2-3)Gal(b1-4)GlcNAc(b1-6)]GalNAc
# How it was run: as §1
# [23] = biological target: Neu5Ac(a2-3)Gal(b1-4)GlcNAc(b1-6)GalNAc
# How it was run: as §1
# [24] = biological target: Neu5Ac(a2-3)Gal(b1-4)GlcNAc(b1-6)[Gal(b1-3)]GalNAc
# How it was run: as §1
# [25] = biological target: Neu5Ac(a2-3)Gal(b1-4)GlcNAc(b1-6)[Neu5Ac(a2-3)Gal(b1-3)]GalNAc
# How it was run: as §1
# [26] = biological target: Neu5Ac(a2-3)Gal(b1-4)GlcNAc6S
# How it was run: as §1
# [27] = biological target: Neu5Ac(a2-3)Gal(b1-4)[Fuc(a1-3)]GlcNAc
# How it was run: as §1
# [28] = biological target: Neu5Ac(a2-3)Gal(b1-4)[Fuc(a1-3)]GlcNAc(b1-2)Man
# How it was run: as §1
# [29] = biological target: Neu5Ac(a2-3)Gal(b1-4)[Fuc(a1-3)]GlcNAc(b1-3)Gal
# How it was run: as §1
# [30] = biological target: Neu5Ac(a2-3)Gal(b1-4)[Fuc(a1-3)]GlcNAc(b1-3)Gal(b1-4)GlcNAc
# How it was run: as §1
# [31] = biological target: Neu5Ac(a2-3)Gal(b1-4)[Fuc(a1-3)]GlcNAc(b1-3)Gal(b1-4)[Fuc(a1-3)]GlcNAc(b1-3)Gal(b1-4)[Fuc(a1-3)]GlcNAc
# How it was run: as §1
# [32] = biological target: Neu5Ac(a2-3)Gal(b1-4)[Fuc(a1-3)]GlcNAc(b1-3)GalNAc
# How it was run: as §1
# [33] = biological target: Neu5Ac(a2-3)Gal(b1-4)[Fuc(a1-3)]GlcNAc(b1-6)[Gal(b1-3)]GalNAc
# How it was run: as §1
# [34] = biological target: Neu5Ac(a2-3)Gal(b1-4)[Fuc(a1-3)]GlcNAc(b1-6)[Neu5Ac(a2-3)Gal(b1-3)]GalNAc
# How it was run: as §1
# [35] = biological target: Neu5Ac(a2-3)Gal(b1-4)[Fuc(a1-3)]GlcNAc6S
# How it was run: as §1
# [36] = biological target: Neu5Ac(a2-3)Gal6S(b1-4)GlcNAc
# How it was run: as §1
# [37] = biological target: Neu5Ac(a2-3)Gal6S(b1-4)[Fuc(a1-3)]GlcNAc
# How it was run: as §1
# [38] = biological target: Neu5Ac(a2-3)GalNAc
# How it was run: as §1
binder,measurement,setting,value
B1,glycan array binding signal (z-score),[1],1.58
same,glycan array binding signal (z-score),[2],-0.774
same,glycan array binding signal (z-score),[3],-0.95
same,glycan array binding signal (z-score),[4],1.15
same,glycan array binding signal (z-score),[5],3
same,glycan array binding signal (z-score),[6],1.48
same,glycan array binding signal (z-score),[7],-0.856
same,glycan array binding signal (z-score),[8],-1.68
same,glycan array binding signal (z-score),[9],-0.462
same,glycan array binding signal (z-score),[10],-0.557
same,glycan array binding signal (z-score),[11],0.66
same,glycan array binding signal (z-score),[12],-0.565
same,glycan array binding signal (z-score),[13],-1.09
same,glycan array binding signal (z-score),[14],-1.28
same,glycan array binding signal (z-score),[15],0.424
same,glycan array binding signal (z-score),[16],-0.499
same,glycan array binding signal (z-score),[17],0.687
same,glycan array binding signal (z-score),[18],-0.338
same,glycan array binding signal (z-score),[19],-0.491
same,glycan array binding signal (z-score),[20],-0.571
same,glycan array binding signal (z-score),[21],-0.74
same,glycan array binding signal (z-score),[22],-0.333
same,glycan array binding signal (z-score),[23],-0.433
same,glycan array binding signal (z-score),[24],0.944
same,glycan array binding signal (z-score),[25],1.62
same,glycan array binding signal (z-score),[26],-0.327
same,glycan array binding signal (z-score),[27],-0.468
same,glycan array binding signal (z-score),[28],0.72
same,glycan array binding signal (z-score),[29],-0.164
same,glycan array binding signal (z-score),[30],-0.262
same,glycan array binding signal (z-score),[31],0.998
same,glycan array binding signal (z-score),[32],0.511
same,glycan array binding signal (z-score),[33],-0.496
same,glycan array binding signal (z-score),[34],-0.911
same,glycan array binding signal (z-score),[35],0.521
same,glycan array binding signal (z-score),[36],-0.12
same,glycan array binding signal (z-score),[37],0.034
same,glycan array binding signal (z-score),[38],-0.745

# A section from further up, as a working copy:
binder,measurement,setting,value
B1,glycan array binding signal (z-score),[24],0.944
same,glycan array binding signal (z-score),[25],1.62
same,glycan array binding signal (z-score),[26],-0.327
